Source: PMC5896957
No constants are given. Whether binding was seen depends on the method and setting. Binding seen in cells or lysates may run through a third protein.

Sequences of proteins named here, by UniProt entry; tags and fusion partners are left off. A change or cut given only in a name is not applied to a line headed by its entry.
UniProt Q9BZI7: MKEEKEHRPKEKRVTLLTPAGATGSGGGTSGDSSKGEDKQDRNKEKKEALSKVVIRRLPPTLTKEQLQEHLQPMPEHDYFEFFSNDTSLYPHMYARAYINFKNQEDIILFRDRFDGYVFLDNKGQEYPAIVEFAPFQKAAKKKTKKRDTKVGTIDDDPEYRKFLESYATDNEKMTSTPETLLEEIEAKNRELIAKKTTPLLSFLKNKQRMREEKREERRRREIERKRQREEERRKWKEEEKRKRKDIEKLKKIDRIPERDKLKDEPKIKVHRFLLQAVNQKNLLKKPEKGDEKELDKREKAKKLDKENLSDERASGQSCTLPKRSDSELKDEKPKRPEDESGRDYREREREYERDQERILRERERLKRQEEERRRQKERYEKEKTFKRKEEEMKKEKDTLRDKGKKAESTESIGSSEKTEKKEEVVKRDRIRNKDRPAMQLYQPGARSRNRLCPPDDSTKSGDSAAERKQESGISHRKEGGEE
UniProt Q9Y2F5: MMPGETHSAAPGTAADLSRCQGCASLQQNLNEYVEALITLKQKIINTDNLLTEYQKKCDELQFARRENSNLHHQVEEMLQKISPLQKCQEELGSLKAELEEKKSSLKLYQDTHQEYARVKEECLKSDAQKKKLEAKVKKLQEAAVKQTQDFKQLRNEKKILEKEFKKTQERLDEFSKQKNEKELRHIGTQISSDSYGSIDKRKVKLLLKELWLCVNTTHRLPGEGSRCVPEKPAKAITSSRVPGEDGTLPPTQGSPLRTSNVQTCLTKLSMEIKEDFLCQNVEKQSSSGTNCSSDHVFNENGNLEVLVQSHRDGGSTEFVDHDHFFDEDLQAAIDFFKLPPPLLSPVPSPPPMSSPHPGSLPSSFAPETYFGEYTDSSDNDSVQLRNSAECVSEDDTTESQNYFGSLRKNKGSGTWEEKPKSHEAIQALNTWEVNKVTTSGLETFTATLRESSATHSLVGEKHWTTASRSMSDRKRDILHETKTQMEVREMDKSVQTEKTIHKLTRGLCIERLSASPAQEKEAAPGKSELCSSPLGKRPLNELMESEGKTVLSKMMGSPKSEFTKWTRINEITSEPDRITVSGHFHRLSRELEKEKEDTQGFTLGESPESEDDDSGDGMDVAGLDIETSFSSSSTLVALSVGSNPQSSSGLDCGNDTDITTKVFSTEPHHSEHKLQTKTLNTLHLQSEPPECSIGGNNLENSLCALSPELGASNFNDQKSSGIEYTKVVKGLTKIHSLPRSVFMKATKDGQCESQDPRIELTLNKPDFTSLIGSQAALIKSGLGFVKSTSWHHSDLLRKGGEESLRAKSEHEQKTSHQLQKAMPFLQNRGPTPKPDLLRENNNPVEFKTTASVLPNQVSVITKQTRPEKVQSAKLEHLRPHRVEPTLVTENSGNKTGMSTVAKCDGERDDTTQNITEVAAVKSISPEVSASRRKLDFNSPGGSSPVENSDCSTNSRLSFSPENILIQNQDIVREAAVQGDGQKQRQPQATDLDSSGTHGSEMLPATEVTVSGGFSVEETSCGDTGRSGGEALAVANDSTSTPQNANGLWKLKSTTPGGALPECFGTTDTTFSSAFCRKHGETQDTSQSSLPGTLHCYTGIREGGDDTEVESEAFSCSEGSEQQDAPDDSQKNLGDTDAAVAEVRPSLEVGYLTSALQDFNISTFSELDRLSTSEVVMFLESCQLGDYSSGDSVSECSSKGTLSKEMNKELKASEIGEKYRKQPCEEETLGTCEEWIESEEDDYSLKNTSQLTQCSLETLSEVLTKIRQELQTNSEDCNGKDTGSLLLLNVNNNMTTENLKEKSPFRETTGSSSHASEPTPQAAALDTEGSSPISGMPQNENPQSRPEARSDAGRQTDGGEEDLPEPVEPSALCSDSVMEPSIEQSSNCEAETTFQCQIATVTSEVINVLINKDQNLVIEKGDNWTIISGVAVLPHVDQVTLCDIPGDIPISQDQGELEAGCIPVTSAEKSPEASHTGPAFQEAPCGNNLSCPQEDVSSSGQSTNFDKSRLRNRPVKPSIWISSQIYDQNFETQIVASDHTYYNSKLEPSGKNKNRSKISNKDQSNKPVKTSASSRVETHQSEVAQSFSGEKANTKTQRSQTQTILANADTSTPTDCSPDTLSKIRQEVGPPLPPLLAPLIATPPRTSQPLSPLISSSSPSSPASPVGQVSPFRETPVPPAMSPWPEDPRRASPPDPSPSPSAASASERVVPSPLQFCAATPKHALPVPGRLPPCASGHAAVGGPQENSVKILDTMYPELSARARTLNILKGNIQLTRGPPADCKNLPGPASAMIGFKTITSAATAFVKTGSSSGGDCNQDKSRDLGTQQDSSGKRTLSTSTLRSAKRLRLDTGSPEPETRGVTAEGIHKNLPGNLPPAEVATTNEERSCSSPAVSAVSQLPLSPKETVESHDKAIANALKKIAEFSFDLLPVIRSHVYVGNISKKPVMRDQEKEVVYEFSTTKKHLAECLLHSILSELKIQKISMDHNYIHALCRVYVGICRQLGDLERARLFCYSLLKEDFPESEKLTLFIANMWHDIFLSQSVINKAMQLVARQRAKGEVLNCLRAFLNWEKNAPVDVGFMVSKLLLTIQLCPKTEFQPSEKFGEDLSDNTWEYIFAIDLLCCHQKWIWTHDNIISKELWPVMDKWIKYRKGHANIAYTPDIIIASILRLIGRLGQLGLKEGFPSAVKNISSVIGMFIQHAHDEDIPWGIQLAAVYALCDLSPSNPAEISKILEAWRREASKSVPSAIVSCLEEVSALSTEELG

Target: Overexpressed 3XMYC-UPF3B lacking the EJC-binding domain (human) (UniProt Q9BZI7)
Experiment: co-IP; anti-myc IP from HEK-293 lysates overexpressing 3Xmyc-tagged UPF3B constructs; immunoblot

- binding: no binding
Substance: ICE1 (interactor of little elongation complex ELL subunit 1) (from UniProt Q9Y2F5 1-2266)
